± gives the standard deviation of the averaged measurements. The list shows a part of the results, in another mix than the full data.
Compound: Nc1ncnc2c1ncn2[C@@H]1O[C@H](COP(=O)(O)OP(=O)(O)NP(=O)(O)O)[C@@H](O)[C@H]1O [adenylyl imidodiphosphate]
Assay: NP40-soluble protein abundance relative to vehicle (solubility fold change) (ratio); higher = more soluble protein in presence of AMP-PNP
In short: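 Crude Jurkat lysate, prepared by Dounce homogenisation, was exposed to eight concentrations from 0.1 to 10 mM for 10 min at room temperature and then 3 min at 37 °C. Solubilisation used 0.8% NP40 with benzonase for 60 min at 4 °C, followed by ultracentrifugation and TMT labelling of the supernatant for LC-MS/MS. After vsn normalisation of intensities, each value is the fold change against the detergent-processed vehicle within each replicate, across three independent experiments.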

Amino acid sequences for entries named in this document (tags omitted). A change or cut given only in a name is not applied to a line headed by its entry.
UniProt Q6P6C2: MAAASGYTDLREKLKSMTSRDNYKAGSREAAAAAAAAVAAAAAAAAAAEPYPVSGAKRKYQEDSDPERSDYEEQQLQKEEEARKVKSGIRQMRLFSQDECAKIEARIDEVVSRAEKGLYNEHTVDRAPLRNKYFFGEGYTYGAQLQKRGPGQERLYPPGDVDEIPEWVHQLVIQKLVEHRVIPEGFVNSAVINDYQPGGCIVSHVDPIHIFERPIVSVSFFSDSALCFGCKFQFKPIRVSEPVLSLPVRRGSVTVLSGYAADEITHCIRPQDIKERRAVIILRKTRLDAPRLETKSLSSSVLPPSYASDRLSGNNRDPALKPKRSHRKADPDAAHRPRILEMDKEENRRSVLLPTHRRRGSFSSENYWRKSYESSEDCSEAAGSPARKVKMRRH
UniProt Q7L9B9: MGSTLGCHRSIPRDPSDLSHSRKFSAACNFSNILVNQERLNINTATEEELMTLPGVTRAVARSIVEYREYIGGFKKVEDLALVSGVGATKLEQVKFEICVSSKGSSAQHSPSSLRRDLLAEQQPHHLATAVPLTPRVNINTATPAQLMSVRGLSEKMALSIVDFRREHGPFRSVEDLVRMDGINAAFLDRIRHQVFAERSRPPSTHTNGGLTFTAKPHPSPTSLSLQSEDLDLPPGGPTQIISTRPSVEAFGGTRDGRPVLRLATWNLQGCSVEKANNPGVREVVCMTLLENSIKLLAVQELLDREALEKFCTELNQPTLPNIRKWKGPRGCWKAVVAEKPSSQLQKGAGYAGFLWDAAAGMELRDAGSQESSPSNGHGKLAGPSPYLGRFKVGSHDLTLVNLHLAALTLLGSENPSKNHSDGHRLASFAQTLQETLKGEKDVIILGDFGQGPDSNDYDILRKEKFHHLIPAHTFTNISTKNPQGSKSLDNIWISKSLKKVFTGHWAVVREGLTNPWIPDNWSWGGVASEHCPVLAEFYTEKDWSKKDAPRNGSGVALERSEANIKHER
UniProt Q71F23: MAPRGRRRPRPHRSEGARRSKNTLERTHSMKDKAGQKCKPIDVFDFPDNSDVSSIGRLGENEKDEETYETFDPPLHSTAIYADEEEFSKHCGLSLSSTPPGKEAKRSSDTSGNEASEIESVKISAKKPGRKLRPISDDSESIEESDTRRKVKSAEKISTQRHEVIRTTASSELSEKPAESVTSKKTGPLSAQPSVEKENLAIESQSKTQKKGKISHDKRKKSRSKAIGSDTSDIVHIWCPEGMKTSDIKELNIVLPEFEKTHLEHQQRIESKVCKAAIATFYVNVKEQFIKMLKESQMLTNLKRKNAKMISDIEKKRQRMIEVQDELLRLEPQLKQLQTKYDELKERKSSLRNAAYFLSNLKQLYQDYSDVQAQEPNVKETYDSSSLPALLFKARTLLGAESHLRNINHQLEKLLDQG
UniProt Q6PJ69: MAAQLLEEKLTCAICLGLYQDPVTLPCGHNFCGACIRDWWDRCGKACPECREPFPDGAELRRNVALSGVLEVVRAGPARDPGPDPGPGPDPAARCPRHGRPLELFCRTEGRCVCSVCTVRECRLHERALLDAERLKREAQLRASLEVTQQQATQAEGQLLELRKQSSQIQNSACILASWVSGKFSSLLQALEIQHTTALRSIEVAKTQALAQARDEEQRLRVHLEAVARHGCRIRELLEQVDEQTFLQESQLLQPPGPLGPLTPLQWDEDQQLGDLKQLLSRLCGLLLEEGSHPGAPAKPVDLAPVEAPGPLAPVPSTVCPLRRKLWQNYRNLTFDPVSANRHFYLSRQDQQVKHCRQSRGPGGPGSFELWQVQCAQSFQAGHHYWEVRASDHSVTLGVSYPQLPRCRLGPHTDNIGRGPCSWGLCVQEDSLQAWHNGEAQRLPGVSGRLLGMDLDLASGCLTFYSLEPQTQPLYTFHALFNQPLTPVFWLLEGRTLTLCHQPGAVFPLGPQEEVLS
UniProt Q70Z53: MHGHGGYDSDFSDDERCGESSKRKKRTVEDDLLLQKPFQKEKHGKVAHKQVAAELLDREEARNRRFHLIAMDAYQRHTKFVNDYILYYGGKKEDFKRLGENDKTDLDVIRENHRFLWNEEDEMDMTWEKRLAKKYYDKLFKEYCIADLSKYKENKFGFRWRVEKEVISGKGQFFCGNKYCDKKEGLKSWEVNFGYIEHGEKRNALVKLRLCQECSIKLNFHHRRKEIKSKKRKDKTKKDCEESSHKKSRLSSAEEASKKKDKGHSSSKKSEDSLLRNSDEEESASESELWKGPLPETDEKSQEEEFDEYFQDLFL
UniProt Q6P2P2: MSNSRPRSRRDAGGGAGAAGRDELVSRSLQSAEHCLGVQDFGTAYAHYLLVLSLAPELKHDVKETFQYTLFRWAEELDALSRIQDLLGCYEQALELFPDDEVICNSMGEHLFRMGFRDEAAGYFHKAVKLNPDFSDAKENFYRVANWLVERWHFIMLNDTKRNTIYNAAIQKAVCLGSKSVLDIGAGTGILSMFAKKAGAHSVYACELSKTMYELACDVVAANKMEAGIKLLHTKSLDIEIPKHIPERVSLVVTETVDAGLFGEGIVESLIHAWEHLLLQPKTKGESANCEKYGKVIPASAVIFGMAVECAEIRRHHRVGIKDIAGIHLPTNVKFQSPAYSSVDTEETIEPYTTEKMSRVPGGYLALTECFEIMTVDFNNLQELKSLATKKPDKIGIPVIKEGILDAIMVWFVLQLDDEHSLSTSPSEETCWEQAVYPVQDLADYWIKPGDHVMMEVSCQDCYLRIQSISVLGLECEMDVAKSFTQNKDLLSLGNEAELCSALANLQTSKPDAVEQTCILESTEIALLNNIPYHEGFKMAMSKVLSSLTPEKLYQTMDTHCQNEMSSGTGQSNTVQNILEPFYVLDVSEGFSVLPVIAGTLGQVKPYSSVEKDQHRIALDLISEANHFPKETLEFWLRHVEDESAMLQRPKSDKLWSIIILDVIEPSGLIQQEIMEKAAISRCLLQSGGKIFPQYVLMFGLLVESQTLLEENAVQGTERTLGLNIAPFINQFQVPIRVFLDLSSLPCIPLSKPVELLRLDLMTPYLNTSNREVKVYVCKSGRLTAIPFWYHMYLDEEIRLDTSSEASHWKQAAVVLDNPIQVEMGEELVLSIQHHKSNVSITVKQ
UniProt Q6IQ22: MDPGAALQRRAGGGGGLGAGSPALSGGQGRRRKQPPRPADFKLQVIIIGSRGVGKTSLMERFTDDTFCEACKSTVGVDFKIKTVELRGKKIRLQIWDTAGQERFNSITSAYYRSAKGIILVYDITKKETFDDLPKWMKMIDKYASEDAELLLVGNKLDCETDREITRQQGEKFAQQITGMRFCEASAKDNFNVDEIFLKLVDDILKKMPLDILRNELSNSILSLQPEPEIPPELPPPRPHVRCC
UniProt Q6RFH5: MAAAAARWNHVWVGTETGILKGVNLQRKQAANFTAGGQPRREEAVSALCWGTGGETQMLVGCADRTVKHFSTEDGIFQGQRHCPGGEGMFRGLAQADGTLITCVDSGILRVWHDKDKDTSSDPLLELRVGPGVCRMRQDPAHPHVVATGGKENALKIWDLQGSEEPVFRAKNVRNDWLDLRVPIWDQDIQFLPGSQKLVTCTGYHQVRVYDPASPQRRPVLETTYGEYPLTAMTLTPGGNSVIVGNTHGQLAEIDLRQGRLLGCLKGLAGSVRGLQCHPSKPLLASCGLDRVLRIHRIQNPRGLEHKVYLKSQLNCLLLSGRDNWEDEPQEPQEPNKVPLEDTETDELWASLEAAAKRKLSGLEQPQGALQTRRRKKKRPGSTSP
UniProt Q6PJG2: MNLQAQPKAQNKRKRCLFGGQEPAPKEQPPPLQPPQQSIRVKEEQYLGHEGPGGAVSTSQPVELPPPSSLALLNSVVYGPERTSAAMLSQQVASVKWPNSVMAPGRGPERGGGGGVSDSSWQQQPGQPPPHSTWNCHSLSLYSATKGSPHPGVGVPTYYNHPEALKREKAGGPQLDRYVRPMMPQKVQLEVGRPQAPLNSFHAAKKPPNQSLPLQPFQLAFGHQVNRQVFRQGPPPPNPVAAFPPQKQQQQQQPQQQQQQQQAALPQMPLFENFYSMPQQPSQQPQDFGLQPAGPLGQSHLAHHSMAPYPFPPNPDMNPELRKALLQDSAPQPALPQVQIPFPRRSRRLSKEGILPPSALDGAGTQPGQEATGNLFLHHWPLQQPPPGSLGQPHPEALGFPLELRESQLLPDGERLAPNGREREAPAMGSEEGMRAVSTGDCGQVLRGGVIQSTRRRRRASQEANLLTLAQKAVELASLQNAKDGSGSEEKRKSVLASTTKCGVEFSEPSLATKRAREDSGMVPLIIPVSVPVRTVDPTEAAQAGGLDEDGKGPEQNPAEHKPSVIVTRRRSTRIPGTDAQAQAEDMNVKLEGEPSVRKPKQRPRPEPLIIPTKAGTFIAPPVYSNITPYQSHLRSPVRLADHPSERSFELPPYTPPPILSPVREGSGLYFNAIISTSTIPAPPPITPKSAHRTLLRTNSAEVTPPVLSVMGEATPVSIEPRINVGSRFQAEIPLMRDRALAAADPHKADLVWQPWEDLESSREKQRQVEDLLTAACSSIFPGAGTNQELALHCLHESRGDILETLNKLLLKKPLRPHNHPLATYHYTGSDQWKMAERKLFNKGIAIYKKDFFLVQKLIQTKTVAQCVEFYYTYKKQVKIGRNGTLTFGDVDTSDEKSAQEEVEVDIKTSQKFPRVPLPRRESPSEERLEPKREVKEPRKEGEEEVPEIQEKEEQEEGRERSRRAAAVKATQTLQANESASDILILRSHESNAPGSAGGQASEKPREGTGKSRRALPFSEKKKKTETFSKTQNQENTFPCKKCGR
UniProt Q6IEG0: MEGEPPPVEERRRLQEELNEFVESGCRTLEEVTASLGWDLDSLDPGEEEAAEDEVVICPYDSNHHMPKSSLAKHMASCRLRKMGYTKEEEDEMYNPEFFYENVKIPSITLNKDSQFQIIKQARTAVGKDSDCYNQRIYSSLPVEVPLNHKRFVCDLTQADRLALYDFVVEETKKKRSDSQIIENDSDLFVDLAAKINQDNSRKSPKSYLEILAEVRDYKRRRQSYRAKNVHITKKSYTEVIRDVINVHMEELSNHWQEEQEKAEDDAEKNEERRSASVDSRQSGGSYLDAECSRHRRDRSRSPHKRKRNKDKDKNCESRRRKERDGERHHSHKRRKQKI
UniProt Q6P1X5, whole entry: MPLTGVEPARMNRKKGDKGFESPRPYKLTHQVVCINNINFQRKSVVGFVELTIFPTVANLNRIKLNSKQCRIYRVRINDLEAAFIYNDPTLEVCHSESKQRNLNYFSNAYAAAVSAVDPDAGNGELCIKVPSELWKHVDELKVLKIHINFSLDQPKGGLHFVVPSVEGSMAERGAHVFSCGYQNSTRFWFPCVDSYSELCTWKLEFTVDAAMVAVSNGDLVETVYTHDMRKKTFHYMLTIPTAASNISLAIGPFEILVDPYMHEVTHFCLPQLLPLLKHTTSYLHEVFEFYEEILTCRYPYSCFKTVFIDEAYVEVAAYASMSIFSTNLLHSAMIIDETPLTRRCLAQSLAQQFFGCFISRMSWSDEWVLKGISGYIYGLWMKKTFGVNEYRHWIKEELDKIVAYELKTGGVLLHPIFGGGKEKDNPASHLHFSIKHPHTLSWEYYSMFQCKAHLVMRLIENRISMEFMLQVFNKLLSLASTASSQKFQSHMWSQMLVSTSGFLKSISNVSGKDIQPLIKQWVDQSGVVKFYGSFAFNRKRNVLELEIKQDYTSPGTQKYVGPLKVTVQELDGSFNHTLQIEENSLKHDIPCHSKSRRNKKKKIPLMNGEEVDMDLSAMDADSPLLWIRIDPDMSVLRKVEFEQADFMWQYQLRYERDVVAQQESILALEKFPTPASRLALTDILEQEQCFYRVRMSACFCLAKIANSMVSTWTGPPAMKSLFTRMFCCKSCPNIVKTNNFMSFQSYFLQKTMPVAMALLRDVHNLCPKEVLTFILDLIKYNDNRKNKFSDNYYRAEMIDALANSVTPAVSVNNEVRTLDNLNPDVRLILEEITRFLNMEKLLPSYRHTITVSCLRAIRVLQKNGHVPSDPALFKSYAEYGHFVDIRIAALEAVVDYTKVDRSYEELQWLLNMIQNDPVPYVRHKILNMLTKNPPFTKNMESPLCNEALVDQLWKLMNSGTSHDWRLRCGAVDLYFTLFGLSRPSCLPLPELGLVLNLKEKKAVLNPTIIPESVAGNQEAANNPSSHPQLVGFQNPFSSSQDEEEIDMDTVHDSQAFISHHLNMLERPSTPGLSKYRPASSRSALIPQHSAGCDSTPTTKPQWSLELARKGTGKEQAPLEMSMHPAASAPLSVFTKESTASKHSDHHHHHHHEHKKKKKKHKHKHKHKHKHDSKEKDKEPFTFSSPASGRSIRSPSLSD

Target | NP40-soluble protein abundance (concentration: 1mM) | NP40-soluble protein abundance (concentration: 2mM) | NP40-soluble protein abundance (concentration: 4mM) | NP40-soluble protein abundance (concentration: 6mM) | NP40-soluble protein abundance (concentration: 8mM) | NP40-soluble protein abundance (concentration: 10mM)
UniProt Q6ZNJ1 and related entries | 0.993 ± 0.019 | 0.954 ± 0.066 | 0.999 ± 0.01 | 0.964 ± 0.017 | 0.974 ± 0.013 | 0.961 ± 0.032
UniProt Q6UWP7 and related entries | 0.949 ± 0.042 | 0.949 ± 0.032 | 0.977 ± 0.029 | 0.956 ± 0.028 | 0.985 ± 0.016 | 0.949 ± 0.018
UniProt Q6P444 | 1.007 ± 0.0047 | 1.03 ± 0.021 | 1 ± 0.029 | 1.025 ± 0.0058 | 0.995 ± 0.016 | 0.996 ± 0.019
UniProt Q6P6C2 and related entries | 1.15 ± 0.065 | 1.17 ± 0.036 | 1.22 ± 0.07 | 1.24 ± 0.13 | 1.3 ± 0.13 | 1.33 ± 0.11
EEPD1 (UniProt Q7L9B9) | 0.992 ± 0.037 | 1 ± 0.012 | 0.9996 ± 0.0057 | 0.995 ± 0.035 | 0.9903 ± 0.0092 | 0.973 ± 0.023
UniProt Q71F23 | 1.05 ± 0.028 | 1.07 ± 0.034 | 1.03 ± 0.016 | 1.02 ± 0.039 | 1.07 ± 0.013 | 1.08 ± 0.0087
UniProt Q6V1X1 and related entries | 0.915 ± 0.044 | 0.87 ± 0.079 | 0.88 ± 0.016 | 0.887 ± 0.022 | 0.8901 ± 0.0078 | 0.844 ± 0.033
TRIM65 (UniProt Q6PJ69) | 1.02 ± 0.029 | 0.952 ± 0.052 | 0.981 ± 0.033 | 0.971 ± 0.012 | 0.968 ± 0.019 | 0.96 ± 0.021
UniProt Q70Z53 and related entries | 0.966 ± 0.017 | 0.976 ± 0.016 | 0.992 ± 0.01 | 0.982 ± 0.044 | 0.976 ± 0.036 | 0.95 ± 0.045
UniProt Q6P2P2 | 1.04 ± 0.022 | 1.01 ± 0.093 | 1.01 ± 0.038 | 0.966 ± 0.049 | 0.988 ± 0.039 | 1 ± 0.036
RAB12 (UniProt Q6IQ22) | 0.994 ± 0.056 | 0.959 ± 0.056 | 0.988 ± 0.068 | 0.967 ± 0.024 | 0.99 ± 0.077 | 1 ± 0.057
UniProt Q6RFH5 and related entries | 1.01 ± 0.014 | 0.99 ± 0.015 | 0.997 ± 0.019 | 1.01 ± 0.012 | 1.02 ± 0.013 | 1.008 ± 0.0061
UniProt Q765P7 | 1.03 ± 0.048 | 1.05 ± 0.097 | 1.03 ± 0.024 | 1.02 ± 0.021 | 0.99 ± 0.03 | 1.01 ± 0.035
ELMSAN1 (UniProt Q6PJG2) | 1.03 ± 0.026 | 1.06 ± 0.059 | 1.06 ± 0.043 | 1.02 ± 0.019 | 1.023 ± 0.0066 | 1.04 ± 0.036
TWF2 (UniProt Q6IBS0) | 1 ± 0.051 | 1.03 ± 0.034 | 0.976 ± 0.028 | 0.932 ± 0.014 | 0.931 ± 0.01 | 0.952 ± 0.053
SNRNP48 (UniProt Q6IEG0) | 1.05 ± 0.051 | 1.19 ± 0.13 | 1.09 ± 0.062 | 1.1 ± 0.039 | 1.08 ± 0.011 | 1.14 ± 0.066
TAF2 (UniProt Q6P1X5) | 0.9983 ± 0.005 | 0.991 ± 0.018 | 0.9863 ± 0.0071 | 1 ± 0.044 | 1.01 ± 0.04 | 0.992 ± 0.076

Looked up one by one from the list above (2):
Target | NP40-soluble protein abundance (concentration: 1mM) | NP40-soluble protein abundance (concentration: 2mM) | NP40-soluble protein abundance (concentration: 4mM) | NP40-soluble protein abundance (concentration: 6mM) | NP40-soluble protein abundance (concentration: 8mM) | NP40-soluble protein abundance (concentration: 10mM)
ELMSAN1 (UniProt Q6PJG2) | 1.03 ± 0.026 | 1.06 ± 0.059 | 1.06 ± 0.043 | 1.02 ± 0.019 | 1.023 ± 0.0066 | 1.04 ± 0.036
UniProt Q70Z53 and related entries | 0.966 ± 0.017 | 0.976 ± 0.016 | 0.992 ± 0.01 | 0.982 ± 0.044 | 0.976 ± 0.036 | 0.95 ± 0.045

From the supplement of paper PMC6411743
